# Experimental data taken from patent publication US20220177418A1, “INHIBITORS OF THE N-TERMINAL DOMAIN OF THE ANDROGEN RECEPTOR” (The Regents of the University of California, priority 2019, published 2022).
# At least one compound was matched to its structure with a doubt left.
# Columns and labels:
# [1] = test system: AR-expressing (AR-positive) prostate cancer cell lines; assay: MTT cell viability assay, AR-positive cells; type: cell-based; conditions: growth inhibition grade, 6 days
# Method: (§1) FIGS. 3A-Q. Growth inhibitory effects of selected compounds. The indicated cells were exposed to the indicated compounds for 6 days; cell viability was measured by MTT assay, and specific reporters were assayed using literature conditions. Results were normalized to that of vehicle control. Experiments were performed in quadruplicate; results are means±s.d.
# (§2) JN053 and JN138-JN156 were synthesized and tested in biochemical and cell biologic assays that have been described elsewhere. The JN compounds were first studied in cell viability assays (MTT assay) to determine the efficacy and specificity of the JN compounds for inhibition of prostate cancer cell lines.
# (§3) The growth inhibitory effect of the JN compounds was assessed through the MTT assay, which assesses the total number of viable cells in vitro. These experiments were performed in AR-expressing (AR-positive) prostate cancer cell lines to assess on target effects and AR-null (AR-negative) prostate cancer cell lines to assess off target effects (i.e. specificity).
# AR-expressing (AR-pos): • LNCaP: full length AR • LNCaP AR: overexpression of full length AR • 22Rv1: full length AR and ARV7 • VCaP: full length AR and ARV7 • CWR22: full length AR and ARV7
# [2] = test system: AR-null (AR-negative) prostate cancer cell lines; assay: MTT cell viability assay, AR-negative cells; type: cell-based; conditions: growth inhibition grade, 6 days
# Method: as §1, §2, §3
smiles,measurement,setting,value
"C=C(C)C(=O)NC/C(=C/c1ccc(Cl)cc1)c1ccccc1 [JN138, (E)-N-(3-(4-Chlorophenyl)-2-phenylallyl)methacrylamide]",MTT AR-Pos,[1],LOW
same,MTT AR Neg,[2],LOW
